Some of the results follow.

By UniProt entry, the sequences of proteins in these tests, tags left out.
UniProt Q0JBA9, entry or part of it: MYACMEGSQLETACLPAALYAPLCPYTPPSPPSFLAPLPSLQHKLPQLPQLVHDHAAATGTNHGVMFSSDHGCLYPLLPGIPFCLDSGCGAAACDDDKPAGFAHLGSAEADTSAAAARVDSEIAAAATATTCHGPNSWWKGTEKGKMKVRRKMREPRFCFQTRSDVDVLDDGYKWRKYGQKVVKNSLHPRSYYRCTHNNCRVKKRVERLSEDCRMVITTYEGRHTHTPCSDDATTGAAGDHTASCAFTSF

The target in this assay is OsWRKY34 (Oryza sativa, UniProt Q0JBA9 1-250). The assay is described as follows: protein-binding microarray (RPBM); PBS, 2% BSA, 51.3 ng/ul salmon testes DNA, 50 uM zinc acetate, 200 nM TF, 25 C, 1 h; high values mean tight binding. The conditions noted are these: protein: recombinant; tags: N-terminal polyhistidine and DsRed monomer fusion (pET32a); label: CyDye5-dUTP incorporated in the synthesized complementary strand; 3' TTTTT single-stranded linker to array surface; dsDNA, one strand shown. The method, boiled down: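 The binding signal is fluorescence intensity per array feature (arbitrary units). Readings came from an Axon 4000B scanner after a washed, 2% BSA-blocked, double-stranded custom Agilent array had been incubated for 1 h at 25 °C with 200 nM protein and 50 µM zinc acetate. The protein was a Ni–NTA-purified transcription factor fused N-terminally to polyhistidine and DsRed, expressed in E. coli BL21-CodonPlus.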
With “AAGGAATCCGATGTTTGTTTACTGCTCGTTTAGTTTCTACCGGAGTCACCTAGTGCAG”, the binding signal is 11100 fluorescence intensity (a.u.).
The same measure for “CACATCCTCATCTTCTCCTCCGTTGCCGGCGATGACGCGTCGGAGTCACCTAGTGCAG”: 8980 fluorescence intensity (a.u.).
The same measure for “GCCTAATCGGGCAGCGCACAAACGTACCTATTATTTATCCCGGAGTCACCTAGTGCAG”: 9630 fluorescence intensity (a.u.); for “CTCTCTCCCGCTTCTGTCTCCGTGTGTGCATATATATATGCGGAGTCACCTAGTGCAG”: 14700 fluorescence intensity (a.u.); for “CCATGCATTTACTCCATAATTTCCACAACTTGCACAAACCCGGAGTCACCTAGTGCAG”: 8120 fluorescence intensity (a.u.).
With “GTCTTGAACTTCAGTTGTGCCGCCGCATGCATCCTGTTCTCGGAGTCACCTAGTGCAG” the figure was 8740 fluorescence intensity (a.u.); with “ACACTACCTTAGTTCTTCTACATTTTACTATCTCCAACTCCGGAGTCACCTAGTGCAG”, 12800 fluorescence intensity (a.u.); with “GGTGATGAGTGGTGGGGAGAAGGATGGCTACCAACTTGGACGGAGTCACCTAGTGCAG”, 8540 fluorescence intensity (a.u.).
For the sequence “ACCTTTTTTTGTTTCTTTTACTTGTCATTACTGGCCATTACGGAGTCACCTAGTGCAG”, the binding signal is 12800 fluorescence intensity (a.u.).
With “TGGTTTGTACGATGGTAGTTCCTAGATGTTGCAGTCGTCGCGGAGTCACCTAGTGCAG” the figure was 8960 fluorescence intensity (a.u.).
The same measure for “CGTCGCTCTCTCTATCATCCAACGGTGTACTTTATTTTTTCGGAGTCACCTAGTGCAG”: 9550 fluorescence intensity (a.u.); for “GGTGTCCGCAGTTACAGGGGTTGGGCGGGTCCCACGCGCTCGGAGTCACCTAGTGCAG”: 10300 fluorescence intensity (a.u.); for “CTAGGTAAGTTTTGAAATTAGTTTTTTTATACGTGTTCCTCGGAGTCACCTAGTGCAG”: 8330 fluorescence intensity (a.u.).
The same measure for “TCCATCTGTCCGCTCTCTCCTCTTCTTCTTCCTGATAAACCGGAGTCACCTAGTGCAG”: 8680 fluorescence intensity (a.u.).
Take “CCATGCGACACTCTGCTTTTCCCGGTTTTAGGGGCTATTTCGGAGTCACCTAGTGCAG”: the binding signal was 11300 fluorescence intensity (a.u.).
With “GCTCTCTTCCCGCTATTCTTCTCGTCCAGATCTGGACGTCCGGAGTCACCTAGTGCAG” the figure was 9010 fluorescence intensity (a.u.); with “ACAGAAACTCTGCCCGATATTCGATTGGATTTCCTTGGTTCGGAGTCACCTAGTGCAG”, 8990 fluorescence intensity (a.u.); with “CTTATGGCTTTTGATGCACCCACCGTCTTTTTAAGTTTGTCGGAGTCACCTAGTGCAG”, 9440 fluorescence intensity (a.u.).
The same measure for “AGGGTCGGGAGCGAGGCGTTCTTGATTTTTTTCTTCTTCTCGGAGTCACCTAGTGCAG”: 8720 fluorescence intensity (a.u.).
With “AAGTCCATTTGTTCACACGTCTCACCGGATCATCGAACCACGGAGTCACCTAGTGCAG” the figure was 11800 fluorescence intensity (a.u.); with “GGCTTCCCGTTGCGCGCGCGTCCCATCCTCGCCGGCGCTTCGGAGTCACCTAGTGCAG”, 8470 fluorescence intensity (a.u.); with “CCTCCTGCATCGTCAAATCATGATGGATTGTTATTGGACCCGGAGTCACCTAGTGCAG”, 9130 fluorescence intensity (a.u.).
With “TTTTTATGTCACTTACATGTGGTCCCCACATATTTATTCTCGGAGTCACCTAGTGCAG”, the binding signal is 10600 fluorescence intensity (a.u.).
With “GATGCCTCCGTCTCTGATCCCCTTGCCACCCCTACCGGATCGGAGTCACCTAGTGCAG” the figure was 8690 fluorescence intensity (a.u.); with “ACTTTGATGACTCCCCTTTTTCCCGCCGCTCGCGTTTGCCCGGAGTCACCTAGTGCAG”, 8180 fluorescence intensity (a.u.); with “ATCGCCTCACTCCACCACCCCACGCTTCCTTCGCCGCTAACGGAGTCACCTAGTGCAG”, 10900 fluorescence intensity (a.u.).
In the case of “AACAGTTCTGTAAGTTGATGGATGCCCTATATCTGGTTTTCGGAGTCACCTAGTGCAG”, the binding signal is 9310 fluorescence intensity (a.u.).
Turning to “CCCCTAAACTCGTCGCGCAAACTATTGGTTCCGTTTGTGACGGAGTCACCTAGTGCAG”, the binding signal was 8570 fluorescence intensity (a.u.).
The same measure for “GATTGTCGCGCCGTCCTAACCCAGCCGCGCCCCTCGGGCCCGGAGTCACCTAGTGCAG”: 8930 fluorescence intensity (a.u.); for “GTATCTCCCGTTTTGTCGTTGAAAGCGCCGCGTTTTTCCACGGAGTCACCTAGTGCAG”: 9220 fluorescence intensity (a.u.); for “ATATCCATTTTCTCGTCAATGCCACGGCATGTTTGAGTTACGGAGTCACCTAGTGCAG”: 8660 fluorescence intensity (a.u.).
With “TTTTTTTCTTGCACGCGGTAAGGGCTTTCGGTTTTTTGGTCGGAGTCACCTAGTGCAG” the figure was 10800 fluorescence intensity (a.u.); with “TTTGTGTGTGTGTTGTTGGTCGGGTGGGGTCGCCGGCGCCCGGAGTCACCTAGTGCAG”, 20100 fluorescence intensity (a.u.).
With “AAGGGGATATGGTGGTCATGAATAGATAGATACGTTAGGTCGGAGTCACCTAGTGCAG” the figure was 9760 fluorescence intensity (a.u.); with “CCCAACCTTGCACACATCGATCATCATACTCCCATCCTTTCGGAGTCACCTAGTGCAG”, 11000 fluorescence intensity (a.u.); with “CCGGACGCCAGCTCACGAATATCCACCCGATTTAATCCCGCGGAGTCACCTAGTGCAG”, 8580 fluorescence intensity (a.u.).
In the case of “GTCCTATCTCTCGTGTTTTATCGGACATCCGATTGCCTCTCGGAGTCACCTAGTGCAG”, the binding signal was 8960 fluorescence intensity (a.u.).
With “TACACACATAAACTTTCAATTTTTCCGTCATATCGTTCTACGGAGTCACCTAGTGCAG” the figure was 9420 fluorescence intensity (a.u.); with “CATCAAATTCTTCGTATGCCACTTTTTTAGCATCAAATTCCGGAGTCACCTAGTGCAG”, 9250 fluorescence intensity (a.u.).
Turning to “TCTCATCTCCTCGACCCTATTATCAGTAGCCTCTCTTGTACGGAGTCACCTAGTGCAG”, the binding signal is 8830 fluorescence intensity (a.u.).
With “GCTACCCTATTCCTTTCTTTCTTTCTTAGTAGGTCTTTCTCGGAGTCACCTAGTGCAG” the figure was 12000 fluorescence intensity (a.u.); with “TCCGCACAACGTTGACTGGGTCATTACATCATTTTCCGTACGGAGTCACCTAGTGCAG”, 11400 fluorescence intensity (a.u.).

Source of the values: paper PMC7819943, “Rice protein-binding microarrays: a tool to detect cis-acting elements near promoter regions in rice”.
